Some of the results follow.
Tested on: T1, CTL2-GFP (C. trachomatis L2/434/Bu, GFP-expressing)
T1 construct: L2/434/Bu, GFP-expressing
Parameters: species or system HeLa; Intracellular C. trachomatis growth in HeLa cells, bulk GFP fluorescence relative to DMSO
Conditions: bulk GFP, single well; 28.5 h, 10 µM; inhibitor

SMILES | % of control remaining
COc1cc([N+](=O)[O-])ccc1-c1ccc(/C=c2\sc3nc4cc(Br)cnc4n3c2=O)o1 [CBK262579] | 101.502%
Cc1cc(C(=O)N2CCN(C(=O)c3cn(Cc4ccc(S(C)(=O)=O)cc4)nn3)CC2)n(C)n1 [CBK160824T] | 119.654%
CC1CN(c2ccccc2Br)NC1=O (centres unmarked) [CBK026500] | 133.053%
Cc1cc(C)n(CC(C)NC(=O)N2CCC(Oc3cccnc3)C2)n1 (centres unmarked) [CBK305342] | 129.825%
COc1cc(C2Nc3ccccc3-c3nc(SC)nnc3O2)ccc1OCC(=O)O (centres unmarked) [CBK262687] | 100%
O=C(CN1C(=O)c2ccccc2C1=O)Nc1nc(-c2ccccc2)cs1 [CBK287343] | 128.728%
Cc1ccc(S(=O)(=O)Nc2ccnc(-c3ccc(CO)cc3)n2)cc1 [CBK067477] | 106.959%
COc1ccc2[nH]c3c(c2c1)CCNC31CCN(Cc2ccccc2)C1 (centres unmarked) [CBK073952C] | 78.4699%
O=C(CNS(=O)(=O)c1cc(F)c(Br)cc1F)N1CCOCC1 [CBK042216] | 105.722%
CC(=O)c1ccc(-c2cnc3[nH]c(=O)n([C@@H](C)c4ccccc4)c3n2)s1 [CBK064360] | 159.389%
Cn1cc(CCNC(=O)NC2CCN(Cc3ccccn3)CC2)cn1 [CBK305297] | 119.681%
CC1=C[C@@H](CC#N)[C@H](C(C)C)C[C@H]1CC(=O)Nc1ccccn1 [CBK289215] | 109.18%
Cc1nc(SCc2ccccc2)nc(O)c1CC(=O)O [CBK264203] | 100%
O=C(NCC(O)c1ccc(O)cc1)c1cnc(-c2ccc(Cl)cc2)c(-c2cccnc2)c1 (centres unmarked) [CBK036656] | 209.266%
O=C1c2cccc3cccc(c23)C(=O)N1CCCSc1nnc(-c2ccncc2)n1-c1ccccc1 [CBK268684] | 136.933%
CCc1csc(C(=Cc2cccs2)C(N)=O)n1 [CBK001007] | 122.458%
Cc1cc(C)n(CC(O)CN(c2ccccc2)S(=O)(=O)c2ccccc2)n1 (centres unmarked) [CBK264469] | 113.578%
O=C(Cc1nnn[nH]1)N1CCCC2(CCN(C(=O)c3ccoc3)C2)C1 (centres unmarked) [CBK137077] | 108.574%
CCCCOc1ccc(-c2cn(CC(N)=O)cn2)cc1 [CBK009035] | 92.4245%
C/C(=N\Nc1nc(-c2ccccc2)cs1)c1ccccc1 [CBK262104] | 93.4715%
CCCC(C)N(C)C(=O)CCc1c(C)nc(-c2cccnc2)[nH]c1=O (centres unmarked) [CBK304965] | 90.5234%
CN(C)c1ccc(Nc2cc(-c3cccc4ccccc34)ncn2)cc1 [CBK037835] | 176.854%
O=S(=O)(NCC1(c2ccccc2)CCCC1)c1cccnc1 [CBK282762] | 110.207%
Cc1nc(-c2ccc(NC(=O)C3CC=CCC3C(=O)O)cc2)cs1 (centres unmarked) [CBK299815] | 131.986%
COc1cccc(OC)c1OCCNC1CCc2cc(Cl)ccc2C1 (centres unmarked) [CBK013079C] | 123.091%

SMILES | % of control remaining
CC1CCCCN1C(=O)CCn1c(C(F)F)cc2cccnc21 (centres unmarked) [CBK285024] | 128.386%
N#Cc1c(NC(=O)Cn2cnc3sc(-c4ccccc4)cc3c2=O)sc2c1CCC2 [CBK268053] | 129.116%
COc1cc(F)ccc1-c1nc2ncccc2cc1NS(C)(=O)=O [CBK085692] | 110.355%
CCNC(=O)N1CC(C)N(CCCC(c2ccc(F)cc2)c2ccc(F)cc2)CC1C (centres unmarked) [CBK024912C] | 95.5677%
CC1CCN(c2nnnc3c2sc2nc(N4CCOCC4)c4c(c23)CC(C)(C)SC4)CC1 [CBK268062] | 129.294%
COc1ccc(S(=O)(=O)NC(C)C(=O)NCc2ccncc2)cc1 (centres unmarked) [CBK269441] | 101.787%
COc1ccc(S(=O)(=O)N(CC(=O)O)c2ccc(Cl)cc2)cc1OC [CBK267836] | 129.904%
CN(C)c1oc(-c2ccccc2)nc1S(=O)(=O)c1ccccc1 [CBK021477] | 69.9084%
Cc1oc2ccc(O)cc2c1C(=O)N(C)CCOc1ccccc1 [CBK282696] | 112.89%
O=C(Cc1cn2ccsc2n1)NCCCN1CCCc2ccccc21 [CBK306611] | 108.559%
N=C1NC(=O)/C(=C/c2ccc(OC(=O)c3cccc([N+](=O)[O-])c3)cc2)S1 [CBK263606] | 100%
CCCCSc1nnc(NS(=O)(=O)c2ccc(NC(C)=O)cc2)s1 [CBK022853] | 114.117%
CC1(C)CC(=O)C=C(C(=O)Nc2c(F)cc(F)cc2OC2CCNCC2)O1 [CBK050332T] | 80.948%
CC(C)(C)c1ccc(-n2cc(-c3ccc(F)cc3F)nn2)cc1 [CBK094818] | 99.2379%
CCN1C(=O)CC2(C1=O)C(=O)N(CCCOc1ccc(Cl)cc1)c1ccc(C)cc12 (centres unmarked) [CBK075648] | 160.14%
O=C(CN1C(=O)S/C(=C\c2ccccc2OCc2ccccc2)C1=O)c1ccc(Cl)cc1 [CBK264628] | 122.914%
O=C(O)C1CCCN(C(=O)NCc2ccc(F)cc2)C1 (centres unmarked) [CBK161364] | 120.121%
Cc1cc(C)n(-c2ccc3nnc(CCC(=O)Nc4nccs4)n3n2)n1 [CBK307617] | 104.695%
COc1ccccc1CC(=O)N1CCn2cc(C(F)(F)F)nc2C1 [CBK283806] | 103.115%
O=C(O)c1ccc(S(=O)(=O)Nc2nnc(C(F)(F)F)s2)cc1 [CBK062023] | 129.401%
Cc1ccc(-n2c(SCC(N)=O)nnc2-c2ccccc2O)c(C)c1 [CBK269673] | 150.044%
CC1(C)CCCC2=C1CC(C(=O)O)C(C(=O)NCc1cccnc1)C2 (centres unmarked) [CBK286795] | 115.749%
COc1ccc(-c2nccnc2OC)c(OC)c1 [CBK107039] | 111.225%
CCOc1ncccc1NC(=O)C(C)n1cccn1 (centres unmarked) [CBK245377] | 99.9464%
CC(C)(C)NC(=O)NCC(c1ccc[nH]1)C(F)(F)F (centres unmarked) [CBK021595] | 162.88%

Ordered by formula weight (largest number first): some entries from above.
SMILES | % of control remaining
CC1CCN(c2nnnc3c2sc2nc(N4CCOCC4)c4c(c23)CC(C)(C)SC4)CC1 [CBK268062] | 129.294%
O=C(CN1C(=O)S/C(=C\c2ccccc2OCc2ccccc2)C1=O)c1ccc(Cl)cc1 [CBK264628] | 122.914%
N#Cc1c(NC(=O)Cn2cnc3sc(-c4ccccc4)cc3c2=O)sc2c1CCC2 [CBK268053] | 129.116%
CCN1C(=O)CC2(C1=O)C(=O)N(CCCOc1ccc(Cl)cc1)c1ccc(C)cc12 (centres unmarked) [CBK075648] | 160.14%
CCCCSc1nnc(NS(=O)(=O)c2ccc(NC(C)=O)cc2)s1 [CBK022853] | 114.117%
CC1(C)CC(=O)C=C(C(=O)Nc2c(F)cc(F)cc2OC2CCNCC2)O1 [CBK050332T] | 80.948%
Cc1cc(C)n(-c2ccc3nnc(CCC(=O)Nc4nccs4)n3n2)n1 [CBK307617] | 104.695%
Cc1ccc(-n2c(SCC(N)=O)nnc2-c2ccccc2O)c(C)c1 [CBK269673] | 150.044%
O=C(O)c1ccc(S(=O)(=O)Nc2nnc(C(F)(F)F)s2)cc1 [CBK062023] | 129.401%
COc1ccc(S(=O)(=O)NC(C)C(=O)NCc2ccncc2)cc1 (centres unmarked) [CBK269441] | 101.787%
CN(C)c1oc(-c2ccccc2)nc1S(=O)(=O)c1ccccc1 [CBK021477] | 69.9084%
Cc1oc2ccc(O)cc2c1C(=O)N(C)CCOc1ccccc1 [CBK282696] | 112.89%
CC(C)(C)c1ccc(-n2cc(-c3ccc(F)cc3F)nn2)cc1 [CBK094818] | 99.2379%
CC(C)(C)NC(=O)NCC(c1ccc[nH]1)C(F)(F)F (centres unmarked) [CBK021595] | 162.88%

— publication PMC12040169 (PLOS Biology, 2025)
